{"source": "paper PMC8199443", "binders": {"B1": {"name": "OpuAA, nucleotide-binding subunit of the ABC transporter OpuA (protein, UniProt Q9KIF7 1-408)", "chain": "MPVKIKIEHLTKIFGKRIKTALTMVEKGEPKNEILKKTGATVGVYDTNFEINEGEIFVIMGLSGSGKSTLLRLLNRLIEPTSGKIFIDNQDVATLNKEDLLQVRRKTMSMVFQNFGLFPHRTILENTEYGLEVQNVPKEERRKRAEKALDNANLLDFKDQYPKQLSGGMQQRVGLARALANDPEILLMDEAFSALDPLIRREMQDELLELQAKFQKTIIFVSHDLNEALRIGDRIAIMKDGKIMQIGTGEEILTNPANDYVKTFVEDVDRAKVITAENIMIPALTTNIDVDGPSVALKKMKTEEVSSLMAVDKKRQFRGVVTSEQAIAARKNNQPLKDVMTTDVGTVSKEMLVRDILPIIYDAPTPLAVVDDNGFLKGVLIRGSVLEALADIPDEDEVEEIEKEEENK"}}, "key": {"[1]": {"target": "OpuABC-H, OpuABC subunit of the ABC transporter OpuA with a C-terminal His6-tag (Lactococcus lactis)", "assay": "pull-down; single tag affinity purification (Ni2+-Sepharose or Strep-tactin) of homodimeric OpuA from membrane vesicles solubilised with 0.5% DDM, 20% glycerol, 4 °C; fractions on Coomassie-stained SDS-PAGE"}, "[2]": {"target": "OpuABC-S, OpuABC subunit of the ABC transporter OpuA with a C-terminal StrepII-tag (Lactococcus lactis)", "assay": "pull-down; single tag affinity purification (Ni2+-Sepharose or Strep-tactin) of homodimeric OpuA from membrane vesicles solubilised with 0.5% DDM, 20% glycerol, 4 °C; fractions on Coomassie-stained SDS-PAGE"}, "[3]": {"target": "OpuABC-SS, OpuABC subunit of the ABC transporter OpuA with a C-terminal TwinStrepII-tag (Lactococcus lactis)", "assay": "pull-down; single tag affinity purification (Ni2+-Sepharose or Strep-tactin) of homodimeric OpuA from membrane vesicles solubilised with 0.5% DDM, 20% glycerol, 4 °C; fractions on Coomassie-stained SDS-PAGE"}, "[4]": {"target": "OpuABC-H, OpuABC subunit of the ABC transporter OpuA with a C-terminal His6-tag (Lactococcus lactis)", "assay": "condition: only nanodisc reconstitution after two sequential affinity purifications in detergent; SEC; OpuA-HSS reconstituted in nanodiscs only after both affinity steps in detergent; SEC fractions on SDS-PAGE; both purified"}, "[5]": {"target": "OpuABC-SS, OpuABC subunit of the ABC transporter OpuA with a C-terminal TwinStrepII-tag (Lactococcus lactis)", "assay": "condition: only nanodisc reconstitution after two sequential affinity purifications in detergent; SEC; OpuA-HSS reconstituted in nanodiscs only after both affinity steps in detergent; SEC fractions on SDS-PAGE; both purified"}, "[6]": {"target": "OpuABC-H, OpuABC subunit of the ABC transporter OpuA with a C-terminal His6-tag (Lactococcus lactis)", "assay": "SEC; affinity-purified OpuA reconstituted in MSP1D1 nanodiscs (DOPE/DOPC/DOPG; OpuA/MSP1D1/lipid 1:20:2000 or 1:20:1000), Superdex 200 Increase 10/300 GL, 50 mM KPi pH 7.0, 200 mM KCl; peak fraction on SDS-PAGE; both purified"}, "[7]": {"target": "OpuABC-S, OpuABC subunit of the ABC transporter OpuA with a C-terminal StrepII-tag (Lactococcus lactis)", "assay": "SEC; affinity-purified OpuA reconstituted in MSP1D1 nanodiscs (DOPE/DOPC/DOPG; OpuA/MSP1D1/lipid 1:20:2000 or 1:20:1000), Superdex 200 Increase 10/300 GL, 50 mM KPi pH 7.0, 200 mM KCl; peak fraction on SDS-PAGE; both purified"}, "[8]": {"target": "OpuABC-SS, OpuABC subunit of the ABC transporter OpuA with a C-terminal TwinStrepII-tag (Lactococcus lactis)", "assay": "SEC; affinity-purified OpuA reconstituted in MSP1D1 nanodiscs (DOPE/DOPC/DOPG; OpuA/MSP1D1/lipid 1:20:2000 or 1:20:1000), Superdex 200 Increase 10/300 GL, 50 mM KPi pH 7.0, 200 mM KCl; peak fraction on SDS-PAGE; both purified"}, "[9]": {"target": "OpuABC-H, OpuABC subunit of the ABC transporter OpuA with a C-terminal His6-tag (Lactococcus lactis)", "assay": "pull-down; Ni2+-Sepharose purification, reconstitution in MSP1D1 nanodiscs, SEC, then Strep-tactin purification of the nanodisc peak fraction (50 mM Tris-HCl pH 8.0, 150 mM NaCl, 4% glycerol); Coomassie-stained SDS-PAGE; both purified"}, "[10]": {"target": "OpuABC-SS, OpuABC subunit of the ABC transporter OpuA with a C-terminal TwinStrepII-tag (Lactococcus lactis)", "assay": "pull-down; Ni2+-Sepharose purification, reconstitution in MSP1D1 nanodiscs, SEC, then Strep-tactin purification of the nanodisc peak fraction (50 mM Tris-HCl pH 8.0, 150 mM NaCl, 4% glycerol); Coomassie-stained SDS-PAGE; both purified"}}, "note": "Results are given in words; binding and its absence hold for the method and conditions named. For some of these results: Binding can be weak; no strength is given. For some of these results: In cells and extracts the contact can be indirect."}
{"binder": "B1", "values": [{"measurement": "binding", "setting": "[1]", "result": "binds"}, {"measurement": "binding", "setting": "[2]", "result": "binds"}, {"measurement": "binding", "setting": "[3]", "result": "binds"}, {"measurement": "binding", "setting": "[4]", "result": "no binding"}, {"measurement": "binding", "setting": "[5]", "result": "no binding"}, {"measurement": "binding", "setting": "[6]", "result": "binds"}, {"measurement": "binding", "setting": "[7]", "result": "binds"}, {"measurement": "binding", "setting": "[8]", "result": "binds"}, {"measurement": "binding", "setting": "[9]", "result": "binds"}, {"measurement": "binding", "setting": "[10]", "result": "binds"}]}
